In the supplement of paper PMC12067093, “Discovery and optimisation of a covalent ligand for TRIM25 and its application to targeted protein ubiquitination” (Chemical Science, 2025):
This is one part of the list.

Compound: Cc1cc(ccc1-c1ccccc1)C(=O)N1CCCN(CC1)C(=O)CCl [compound 10]
Test: probe-labelled cysteine peptide fold change vs DMSO (competition) (log2 fold change); higher = less target engagement (more negative = stronger competition)
Settings: THP-1, incubation time: 4 h
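Further: competitive profiling in live THP-1 cells: cysteine peptides tagged with an iodoacetamide desthiobiotin (IA-DTB) probe, intensity after compound treatment relative to DMSO-treated cells.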

| Target | probe-labelled cysteine peptide fold change (10 µM) | probe-labelled cysteine peptide fold change (50 µM) |
| --- | --- | --- |
| EEF1A1P5_Q5VTE0_363+370_NDPPMEAAGFTAQVIILNHPGQISAGYAPVLDCHMAHIACK (UniProt Q5VTE0) | -0.246 | -0.0248 |
| EDEM1_Q92611_629_VINSSSNCNR (UniProt Q92611) | -0.171 | 0.236 |
| EEF2_P13639_751_LMEPIYLVEIQCPEQVVGGIYGVLNR (UniProt P13639) | 0.113 | 0.132 |
| EEF2_P13639_651_IWCFGPDGTGPNILTDITK (UniProt P13639) | 0.0628 | 0.112 |
| EFTUD2_Q15029_256_LAVTVCINK (UniProt Q15029) | -0.16 | 0.258 |
| EEF1E1_O43324_147_WFCHIQHYPGIR (UniProt O43324) | 0.0712 | 0.339 |
| EGLN1_Q9GZT9_323_CVTCIYYLNK (UniProt Q9GZT9) | 0.243 | 0.0517 |
| EEF2_P13639_728_RCLYASVLTAQPR (UniProt P13639) | -0.0326 | -0.208 |
| EEF2K_O00418_213_QVDIMQMCIIELK (UniProt O00418) | 0.0486 | 0.0302 |
| EFEMP1_Q12805_377_CVCPVSNAMCR (UniProt Q12805) | -0.364 | -0.416 |
| EHHADH_Q08426_559_RYCPIPDVLCELGR (UniProt Q08426) | -0.121 | 0.154 |
| EEFSEC_P57772_289_LGICVTQFDPK (UniProt P57772) | 0.134 | 0.0218 |
| EEF1A1_P68104_234_DGNASGTTLLEALDCILPPTRPTDKPLRLPLQDVYK (UniProt P68104) | -0.124 | -0.435 |
| EEF2_P13639_536_SDPMVQCIIEESGEHIIAGAGELHLEICLK (UniProt P13639) | 0.0647 | -0.00294 |
| EIF2AK4_Q9P2K8_1084_HGAVQLCTPLLLPR (UniProt Q9P2K8) | -0.104 | -0.582 |
| EIF2B4_Q9UI10_69_GAEPETGSAVSAAQCQVGPTR (UniProt Q9UI10) | -0.249 | -0.431 |
| EEF1AKMT1_Q8WVE0_79_IACVSAPSVYQK (UniProt Q8WVE0) | -0.0796 | 0.0648 |
| EFTUD2_Q15029_639_VEESGEHVILGTGELYLDCVMHDLRK (UniProt Q15029) | 0.0466 | 0.0835 |
| EHMT1_Q9H9B1_1105_LLPEFNMAEPPLIFECNHACSCWR (UniProt Q9H9B1) | 0.0315 | 0.0182 |

| Target | probe-labelled cysteine peptide fold change (10 µM) | probe-labelled cysteine peptide fold change (50 µM) |
| --- | --- | --- |
| EIF1AY_O14602_51_LEALCFDGVKR (UniProt O14602) | 0.0523 | -0.249 |
| ECPAS_Q5VYK3_1638_IVAISCAADILK (UniProt Q5VYK3) | 0.257 | 0.122 |
| EGLN1_Q9GZT9_208_HGICVVDDFLGK (UniProt Q9GZT9) | -0.21 | -0.244 |
| EEFSEC_P57772_406_AGQATEGHCPR (UniProt P57772) | 0.493 | 0.392 |
| EIF2S2_P20042_284_EYVTCHTCR (UniProt P20042) | 0.0206 | 0.0526 |
| EIF2S2_P20042_226_TSFVNFTDICK (UniProt P20042) | -0.0131 | -0.0563 |
| EGFL7_Q9UHF1_267_IDSLSEQISFLEEQLGSCSCK (UniProt Q9UHF1) | 0.128 | 0.309 |
| EED_O75530_254_IMSCGMDHSLK (UniProt O75530) | -0.111 | -0.209 |
| EFTUD2_Q15029_639_VEESGEHVILGTGELYLDCVMHDLR (UniProt Q15029) | 0.166 | 0.181 |
| EDEM1_Q92611_529_CGYATLHHVIDK (UniProt Q92611) | 0.0934 | 0.191 |
| EGFL7_Q9UHF1_267+269_IDSLSEQISFLEEQLGSCSCK (UniProt Q9UHF1) | -0.134 | -0.716 |
| EDRF1_Q3B7T1_1074_DAPCELLR (UniProt Q3B7T1) | 0.101 | 0.204 |
| ECI1_P42126_173_YCIGLNETQLGIIAPFWLK (UniProt P42126) | 0.113 | 0.0458 |
| EEF2_P13639_728_CLYASVLTAQPR (UniProt P13639) | -0.0983 | -0.0617 |
| EIF3B_P55884_420_GFHCESSAHWPIFK (UniProt P55884) | 0.121 | 0.105 |
| EFTUD2_Q15029_842_LMEPYYFVEVQAPADCVSAVYTVLAR (UniProt Q15029) | 0.205 | 0.658 |
| EGLN1_Q9GZT9_326_CVTCIYYLNK (UniProt Q9GZT9) | 0.165 | -0.189 |
| EEF2_P13639_591_ETVSEESNVLCLSK (UniProt P13639) | -0.29 | -0.311 |
| ECPAS_Q5VYK3_116_QCELAPTLLTAMEGKPQPQQDSLMHLLIPTLFHMK (UniProt Q5VYK3) | 0.0996 | 0.0921 |
